One series has as its system odor evaluation panel. In words: Odor evaluation panel rating of odorants by Rate-All-That-Apply (RATA) method with 55-word odor lexicon, plus intensity and pleasantness. The arrangement: species or system human. The settings on record: for Floral: mean panelist score for odor label floral (RATA); for Fruity: mean panelist score for odor label fruity (RATA); for Spicy: mean panelist score for odor label spicy (RATA); for Sweet: mean panelist score for odor label sweet (RATA); for Pleasantness: mean panelist score for odor pleasantness.

A short description of series [1]: Evaluation by trained and/or certified flavor or fragrance chemists or master perfumers; categorization by commercial prospect. Particulars: for Rating (category of commercial prospect): evaluation by trained flavor or fragrance chemists or master perfumers; for Rating: category of commercial prospect, (A) highest > (B) > (C) > (D) lowest, (E) requires further study.

Each structure is given as a SMILES string.

Consider `CC1(C)Oc2ccccc2O1` [Compound 571, 2,2-dimethyl-1,3-benzodioxole], for which, in the series on odor evaluation panel, the Floral is listed as 0.429, the Fruity was determined as 0, the Spicy is 0.686 and the Sweet is 0.114. Also, the Pleasantness in the series on odor evaluation panel worked out at 4.506. In addition, in series [1], the “Rating (category of commercial prospect)” value was “(D)”.
For the compound `O=C(O)CCCC[C@@H]1CCSS1` [Compound 692, 5-[(3R)-dithiolan-3-yl]pentanoic acid], in the series on odor evaluation panel, the Floral amounted to 0, the Fruity is 0, the Spicy is recorded as 0.057 and the Sweet was 0. Further, in the series on odor evaluation panel, the Pleasantness amounted to 2.663. Further, in series [1], the “Rating (category of commercial prospect)” value is on record as “(D)”.
Regarding `O=[N+]([O-])c1ccc2c(c1)CCN2` [Compound 436, 5-nitro-2,3-dihydro-1H-indole], in the series on odor evaluation panel, the Floral was 0, the Fruity is recorded as 0.176, the Spicy turned out to be 0.353 and the Sweet is listed as 0.206. In the series on odor evaluation panel, the Pleasantness came out at 5.203. In series [1], the Rating result is “(D)”.
Turning to `CCCCCCCCCCCCSC` [Compound 560, 1-methylsulfanyldodecane], in the series with odor evaluation panel, the Floral is listed as 0, the Fruity is given as 0, the Spicy is 0.083 and the Sweet is given as 0. Further, in series [1], the Rating entry is given as “(B)”.
As for `c1ccc2c(c1)COC2` [Compound 263, 1,3-dihydro-2-benzofuran], in the series on odor evaluation panel, the Floral was 0.938, the Fruity came out at 1.188, the Spicy stood at 0.781 and the Sweet worked out at 1.875. For the same compound, in the series on odor evaluation panel, the Pleasantness came out at 6.453. In addition, in series [1], the Rating result is “(A)”.
On to `CCOc1cnccn1` [Compound 913, 2-ethoxypyrazine], for which, in the series with odor evaluation panel, the Floral was 0, the Fruity is listed as 0, the Spicy is reported as 0.545 and the Sweet stood at 0.515. For the same compound, in the series with odor evaluation panel, the Pleasantness worked out at 6.109. The “Rating (category of commercial prospect)” value in series [1] was “(D)”.
For the compound `NC1CCCCC1O` (centres unmarked) [Compound 604, 2-aminocyclohexan-1-ol], in the series with odor evaluation panel, the Floral was 0.094, the Fruity amounted to 0, the Spicy was found to be 0.031 and the Sweet was determined as 0. In addition, the Pleasantness in the series on odor evaluation panel turned out to be 3.619. Further, the “Rating (category of commercial prospect)” value in series [1] is recorded as “(D)”.
`CC(=O)Sc1ccccc1` [Compound 352, S-phenyl ethanethioate]: in the series with odor evaluation panel, the Floral is recorded as 0, the Fruity is given as 0, the Spicy worked out at 0.406 and the Sweet was 0. Moreover, in the series on odor evaluation panel, the Pleasantness stood at 2.697. The Rating result in series [1] was “(A)”.
`COC(=O)C(C)(C)C#N` [Compound 385, methyl 2-cyano-2-methylpropanoate]: in the series on odor evaluation panel, the Floral came out at 0.176, the Fruity stood at 0.441, the Spicy is given as 0.176 and the Sweet is reported as 0.529. Besides, the Pleasantness with odor evaluation panel was found to be 3.8. Further, in series [1], the Rating result was “(D)”.
In the case of `COC(=O)/C=C/c1ccc(C)cc1` [Compound 781, methyl (E)-3-(4-methylphenyl)prop-2-enoate], in the series with odor evaluation panel, the Floral came out at 0.364, the Fruity was 1.273, the Spicy came out at 0 and the Sweet was found to be 1.03. For the same compound, the Pleasantness with odor evaluation panel is 5.488. Moreover, in series [1], the “Rating (category of commercial prospect)” value is “(D)”.
Regarding `N#CCCNC1CCCCC1` [Compound 954, 3-(cyclohexylamino)propanenitrile], in the series on odor evaluation panel, the Floral was 0.056, the Fruity was found to be 0, the Spicy is listed as 0 and the Sweet is 0.083. Also, the “Rating (category of commercial prospect)” value in series [1] is recorded as “(D)”.
In the case of `Cc1cccc2cc[nH]c12` [Compound 276, 7-methyl-1H-indole], in the series on odor evaluation panel, the Floral was 0.188, the Fruity is recorded as 0, the Spicy was 0.188 and the Sweet is reported as 0.219. For the same compound, the Pleasantness in the series with odor evaluation panel came out at 3.581. Further, the Rating entry in series [1] is given as “(B)”.
Turning to `CN(c1ccccc1)c1ccccc1` [Compound 847, N-methyl-N-phenylaniline], in the series with odor evaluation panel, the Floral was 0.278, the Fruity is listed as 0.139, the Spicy is given as 0.25 and the Sweet turned out to be 0.278. Besides, the “Rating (category of commercial prospect)” value in series [1] is listed as “(D)”.
`CC(=O)C1CCOC1=O` (centres unmarked) [Compound 418, 3-acetyloxolan-2-one]: in the series with odor evaluation panel, the Floral amounted to 0, the Fruity was 0.059, the Spicy came to 0.029 and the Sweet came to 0.5. The Pleasantness in the series on odor evaluation panel was found to be 3.944. The Rating entry in series [1] is given as “(B)”.
Consider `O=c1cccccc1O` [Compound 947, 2-hydroxycyclohepta-2,4,6-trien-1-one], for which, in the series on odor evaluation panel, the Floral was determined as 0, the Fruity turned out to be 0.156, the Spicy is recorded as 0.75 and the Sweet was 1.312. Also, in the series with odor evaluation panel, the Pleasantness worked out at 4.647. The “Rating (category of commercial prospect)” value in series [1] is “(D)”.
With `N#CNC1=NCCS1` [Compound 374, 4,5-dihydro-1,3-thiazol-2-ylcyanamide], in the series on odor evaluation panel, the Floral turned out to be 0, the Fruity stood at 0, the Spicy is 0.219 and the Sweet was determined as 0.062. The Pleasantness with odor evaluation panel was determined as 2.794. For the same compound, in series [1], the Rating entry was “(D)”.
As to `C=CC1CC2C=CC1C2` (centres unmarked) [Compound 735, 5-ethenylbicyclo[2.2.1]hept-2-ene], in the series on odor evaluation panel, the Floral was determined as 0, the Fruity was 0.156, the Spicy is 0.531 and the Sweet came to 0.469. Besides, in the series with odor evaluation panel, the Pleasantness turned out to be 3.809. In series [1], the “Rating (category of commercial prospect)” value was “(B)”.
With `CCCCCC1CCC(=O)CC1` [Compound 627, 4-pentylcyclohexan-1-one], in the series on odor evaluation panel, the Floral was 0.353, the Fruity was 0.529, the Spicy is 0 and the Sweet was 0.559. In addition, the Pleasantness in the series on odor evaluation panel is 5.056. Further, in series [1], the “Rating (category of commercial prospect)” value was “(D)”.
For the compound `CCCC(=O)OCCOC(=O)CCC` [Compound 203, 2-butanoyloxyethyl butanoate], in the series with odor evaluation panel, the Floral was 0.125, the Fruity came out at 0.594, the Spicy was 0.125 and the Sweet is 0.312. For the same compound, in the series on odor evaluation panel, the Pleasantness worked out at 4.853. Moreover, the Rating result in series [1] is on record as “(D)”.
On to `OCC1CCOC1` (centres unmarked) [Compound 504, oxolan-3-ylmethanol], for which, in the series with odor evaluation panel, the Floral is reported as 0.056, the Fruity was 0.306, the Spicy was determined as 0 and the Sweet was 0.361. Further, the Rating entry in series [1] is on record as “(B)”.
Take `CC(=O)C1CC1` [Compound 442, 1-cyclopropylethanone]: in the series with odor evaluation panel, the Floral is 0.062, the Fruity came to 0.312, the Spicy amounted to 0 and the Sweet amounted to 0.375. For the same compound, the Pleasantness with odor evaluation panel amounted to 3.981. For the same compound, the Rating result in series [1] was “(D)”.
As for `Cc1ccc(CC(=O)O)cc1` [Compound 920, 2-(4-methylphenyl)acetic acid], in the series with odor evaluation panel, the Floral is recorded as 0.594, the Fruity was found to be 0.281, the Spicy was determined as 0.25 and the Sweet was 0.562. In addition, in the series with odor evaluation panel, the Pleasantness amounted to 3.928. The “Rating (category of commercial prospect)” value in series [1] is recorded as “(A)”.
On to `c1cncc(Cn2cccc2)c1` [Compound 196, 3-(pyrrol-1-ylmethyl)pyridine], for which, in the series with odor evaluation panel, the Floral is listed as 0.324, the Fruity amounted to 0.324, the Spicy amounted to 0.176 and the Sweet is recorded as 1. For the same compound, the Pleasantness in the series with odor evaluation panel was 5.279. The Rating result in series [1] is “(D)”.
Consider `Cn1sccc1=O` [Compound 175, 2-methyl-1,2-thiazol-3-one], for which, in the series with odor evaluation panel, the Floral is 0.281, the Fruity came out at 0.219, the Spicy stood at 0.125 and the Sweet was determined as 0.094. Further, the Pleasantness in the series with odor evaluation panel came to 4.922. Also, in series [1], the Rating result is reported as “(D)”.
For `CCCCOc1ccccn1` [Compound 272, 2-butoxypyridine], in the series on odor evaluation panel, the Floral was determined as 0.417, the Fruity was found to be 0.306, the Spicy was 0.833 and the Sweet amounted to 0.583. The Rating result in series [1] is “(A)”.
Consider `C=C(C)C(=O)OC1CC2CC1C1CCCC21` (centres unmarked) [Compound 118, 8-tricyclo[5.2.1.02,6]decanyl 2-methylprop-2-enoate], for which, in the series with odor evaluation panel, the Floral was determined as 0.781, the Fruity amounted to 1.375, the Spicy is 0 and the Sweet came to 1.562. Moreover, the Pleasantness with odor evaluation panel turned out to be 6.356. In addition, in series [1], the Rating entry is listed as “(A)”.
With `CC1CN(C(=O)OC(C)(C)C)CCN1` (centres unmarked) [Compound 419, tert-butyl 3-methylpiperazine-1-carboxylate], in the series on odor evaluation panel, the Floral was 0.094, the Fruity stood at 0, the Sweet was determined as 1 and the Pleasantness amounted to 6.516. The Rating entry in series [1] is reported as “(D)”.
`OC1C2CC3CC(C2)CC1C3` (centres unmarked) [Compound 460, adamantan-2-ol]: in the series on odor evaluation panel, the Floral is 0.056, the Fruity was 0.028, the Spicy was 0.361 and the Sweet turned out to be 0.056. In addition, the Rating result in series [1] was “(B)”.
Consider `CCNc1cc(O)ccc1C` [Compound 411, 3-(ethylamino)-4-methylphenol], for which, in the series on odor evaluation panel, the Floral is reported as 0.125, the Fruity amounted to 0.344, the Spicy turned out to be 0 and the Sweet was found to be 0.281. For the same compound, in the series with odor evaluation panel, the Pleasantness stood at 4.222. Further, the Rating entry in series [1] is “(D)”.

(Values after US20250075147A1, “FRAGRANCE AND FLAVOR COMPOSITIONS COMPRISING NEW FLAVOR AND FRAGRANCE INGREDIENTS” (priority 2023, published 2025).)
